Hit rate of the full screen: of about 320,000 compounds, about 620 (0.19%) were called active. Inconclusive results, whose numbers are uncertain, are shown with a selection of clear calls. Cut-off read from the data, not from the text of the source: active = activation above about 80%; inconclusive = between about 30% and that limit; inactive = weaker than that.
What follows are compounds tested against Transient receptor potential cation channel subfamily V member 1 (Homo sapiens) (UniProt Q8NER1) (assay: HTS Assay for Compounds that Act as Agonists of the Vanilloid Receptor 1). Settings: TRPV1-expressing cells, Fluo-8 calcium influx, agonist mode; at 8.33 µM, stronger effect = higher value.
Summary of the method: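 Fluo-8 calcium influx in TRPV1-expressing cells, kinetic read (ex 480/em 520 nm). Compound added and read 3 min for agonist activity, followed by capsaicin at EC20 final and 2 min further read for enhancement.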
Note: 0% is about no effect.

Chains of the proteins cited; added tags and fusions are not shown.
UniProt Q8NER1, whole entry, looked up: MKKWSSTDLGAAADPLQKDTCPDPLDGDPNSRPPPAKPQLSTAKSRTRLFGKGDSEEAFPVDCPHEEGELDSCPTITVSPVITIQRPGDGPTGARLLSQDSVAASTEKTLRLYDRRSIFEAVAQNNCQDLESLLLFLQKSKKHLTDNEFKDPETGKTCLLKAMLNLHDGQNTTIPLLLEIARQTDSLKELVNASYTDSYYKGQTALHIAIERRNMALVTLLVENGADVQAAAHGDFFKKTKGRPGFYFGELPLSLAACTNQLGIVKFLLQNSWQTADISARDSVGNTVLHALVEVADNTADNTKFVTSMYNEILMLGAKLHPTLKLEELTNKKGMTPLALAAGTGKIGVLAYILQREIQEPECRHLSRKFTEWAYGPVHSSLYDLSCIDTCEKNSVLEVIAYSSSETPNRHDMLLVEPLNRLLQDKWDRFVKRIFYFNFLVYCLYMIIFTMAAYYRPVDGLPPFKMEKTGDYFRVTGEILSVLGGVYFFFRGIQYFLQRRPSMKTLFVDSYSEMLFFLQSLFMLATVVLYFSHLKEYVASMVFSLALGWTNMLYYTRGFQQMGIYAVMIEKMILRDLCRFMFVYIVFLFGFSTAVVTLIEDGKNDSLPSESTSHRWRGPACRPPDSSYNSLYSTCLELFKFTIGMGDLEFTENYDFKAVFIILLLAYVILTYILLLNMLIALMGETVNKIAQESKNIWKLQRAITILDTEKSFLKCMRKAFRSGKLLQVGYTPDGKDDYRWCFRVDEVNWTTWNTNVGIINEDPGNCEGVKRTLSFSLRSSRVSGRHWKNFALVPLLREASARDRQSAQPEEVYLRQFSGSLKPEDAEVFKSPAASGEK

SMILES | activation
O/N=C(\c1ccc(Cl)cc1)c1cc2ccccc2o1 | inactive: 0.622%
CCC(CC)c1nnc(NC(=O)CN2C(=O)NC3(CCCC3)C2=O)s1 | inactive: -5.28%
Cc1ccc(C(=O)Oc2cccc(NC(=O)c3ccccc3)c2)cc1C | inconclusive: 30.5%
O=C(O)c1ccc(N/N=C/c2c(F)cccc2Cl)cc1 | inactive: -1.54%
Cc1cc(N2CCCC2=O)cc(C)c1S(=O)(=O)NCCOc1ccc(C(C)(C)C)cc1 | inconclusive: 50.5%
O=C(CSCc1ccc(F)cc1)NCc1ccc(F)cc1 | inconclusive: 37.9%
O=C(Nc1ccc(S(=O)(=O)N2CCCCCC2)cc1)c1c(F)cccc1F | inconclusive: 42.5%
CCn1nc(C)c(/C=N/NC(=O)Cn2cncn2)c1C | inactive: -0.189%
CC(C)(C)C(=O)COC(=O)c1cc(-c2ccncc2)nc2ccccc12 | inactive: 22%
CC(=O)Nc1cccc(N(C(=O)C2COc3ccccc3O2)C(C(=O)NC2CCCCC2)c2cn(C)nc2C)c1 (stereo unspecified) | inconclusive: 50%
CC(CNC(=O)CCS(=O)(=O)c1ccc2c(c1)NC(=O)CO2)c1ccccc1 (stereo unspecified) | inconclusive: 31%
Cc1ccc(N2CC(=O)Nc3c(sc4nc(C)cc(C)c34)C2=O)cc1 | inactive: 1.95%
O=C(NCCc1ccc(Cl)cc1)c1cccs1 | active: 81.5%
CCOC(=O)c1c(NC(=O)CSc2nnc(C)s2)sc2c1CCCCC2 | inconclusive: 38%
O=C1c2cccnc2C(Nc2ccc(F)c(Cl)c2)N1Cc1cccs1 (stereo unspecified) | inconclusive: 54.6%
Cc1cccc(C(=O)Nc2ccc3c(c2)C(=O)N(CC(C)C)C3=O)c1 | active: 80.9%
Cc1ccc(NC(=S)NC(CO)C(O)c2ccc([N+](=O)[O-])cc2)cc1 (stereo unspecified) | inactive: -3.79%
Cc1cccc(C(=O)Oc2csc(=S)n2C(=O)c2cccc(C)c2)c1 | inactive: -2%
CCOC(=O)C1(CCCc2ccccc2)CCN(S(=O)(=O)N(C)C)CC1 | inconclusive: 54.6%
Cc1ccc(C)c(OCCC(=O)OCC(=O)c2ccc3c(c2)NC(=O)CO3)c1 | inconclusive: 39.5%
CN(C)c1nc(Nc2ccc(F)cc2)nc(Oc2ccc(F)cc2)n1 | inactive: 23.3%
CNC(=O)c1ccccc1NC(=O)c1cccc(S(=O)(=O)N2CCCCC2)c1 | inconclusive: 44.2%
C=CCNC(=O)c1ccc(Sc2ccccc2)c([N+](=O)[O-])c1 | inconclusive: 52.2%

Rewritten as a markdown table: part of the list above.

| SMILES | activation |
| --- | --- |
| CCOC(=O)c1c(NC(=O)CSc2nnc(C)s2)sc2c1CCCCC2 | inconclusive: 38% |
| O=C1c2cccnc2C(Nc2ccc(F)c(Cl)c2)N1Cc1cccs1 (stereo unspecified) | inconclusive: 54.6% |
| Cc1cccc(C(=O)Nc2ccc3c(c2)C(=O)N(CC(C)C)C3=O)c1 | active: 80.9% |
| Cc1ccc(NC(=S)NC(CO)C(O)c2ccc([N+](=O)[O-])cc2)cc1 (stereo unspecified) | inactive: -3.79% |

Remaining list, next part.

SMILES | activation
Cc1nnc(NC(=O)c2sc3nc(-c4cccs4)cc(C(F)(F)F)c3c2N)s1 | inactive: 17.9%
O=C(COC(=O)c1ccc(F)cc1)NCc1ccc(F)cc1 | inconclusive: 51.1%
Cc1ccc(NC(=O)CS(=O)CC(=O)N(C(C)C(=O)NC2CCCCC2)C(C)(C)C)cc1 (stereo unspecified) | inconclusive: 67.7%
COC(=O)c1c(NC(=O)C2COc3ccccc3O2)sc2c1CCN(C(C)=O)C2 (stereo unspecified) | inconclusive: 39.6%
CC(=O)NCc1cc(-c2nn(C)c(=O)c3ccccc23)ccc1C | inactive: -2.73%
CNC(=O)c1cc2c(-c3ccccc3)nn(C)c2s1 | inconclusive: 41.4%
COc1ccc(-c2cc(C(=O)N3CCCCC3)c3ccccc3n2)cc1 | inconclusive: 32.7%
CC(C)(C)NC(=O)c1cc(-c2ccc3c(c2)OCO3)nc2ccccc12 | inconclusive: 31.4%
CCc1ccc(NC(=S)Nn2cnnc2)cc1 | inactive: 2.41%
Cc1cc(Cl)ccc1NC(=O)CCC(=O)N/N=C/c1cc([N+](=O)[O-])ccc1O | inactive: 0.117%
Cc1cc(C)nc(/N=C(\N)Nc2ccc(SC(F)F)cc2)n1 | inactive: 16%
O=C(COC(=O)CCSc1ccccc1)NCc1ccccc1 | inconclusive: 50.1%
CCCCOC(=O)c1ccc(NC(=O)Nc2ccc(OC)c(OC)c2)cc1 | inconclusive: 65.1%
C=CCc1c(C)nc(C)nc1N/N=C/c1ccccc1O | inactive: -1.2%
Cc1nc2c(C)cccc2cc1C(=O)N/N=C/c1cccnc1 | inconclusive: 32.8%
Cc1cc(Cl)ccc1OCC(=O)NCc1ccncc1 | inconclusive: 32.1%
COC(=O)c1[nH]c2ccc(C)cc2c1NC(=O)CN1CCCC(C)(C)C1 | active: 89%
CC(C)c1ccc(NC(=O)C2=NNC(=O)CC2)cc1 | inconclusive: 73.8%
CN1CCN(c2nc3c(c(=O)n(C)c(=O)n3C)n2Cc2cccc3ccccc23)CC1 | inactive: -1.24%
O=C(/C=C/c1cn(-c2ccccc2)nc1-c1cccnc1)N1CCCC1 | inconclusive: 53.9%
Fc1ccc(Nc2ncnc3ccccc23)cc1 | inconclusive: 43.3%
C=CCSc1nnc(NC(=O)CCN2C(=O)C3CC=CCC3C2=O)s1 (stereo unspecified) | inactive: 5.85%
CC(=O)c1ccc(NC(=S)NC(C)CCc2ccccc2)cc1 (stereo unspecified) | inconclusive: 65.7%

From PubChem BioAssay AID540275 (National Center for Advancing Translational Sciences (NCATS), 2011)
